Results deposited as PubChem BioAssay AID652272 (Drosophila RNAi Screening Center, 2013)
The deposit covers about 21,000 reagents; below is a random part of those with a known target gene and a result. Of all reagents, 503 (2.4%) were called active. 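Raw plate light values, not normalised; calls rest on replicate z-scores that were not deposited; hits include reporter decreases as well as increases.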 A number with no mark means an inactive call. The numbers tell different reagents against one gene apart. A plus sign joins genes that one reagent is predicted to hit. No sequences are given here. Not stated in the record: the amount of reagent, the time to read-out.

- Purpose: 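Genome-wide knock-down search for components of Hedgehog signalling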 (primary screen)
- Cell system: Drosophila clone 8 (Cl8) cells
- Reagents: long dsRNA against Drosophila genes
- Detection: 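Firefly light from a Hedgehog-responsive ptc promoter reporter and Renilla reference light, both read on a plate reader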
- Direction: firefly Hh reporter signal: higher = more ptc reporter light; Renilla reference signal: higher = more Renilla control light
- Active means: 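Hit when the z-score averaged over two replicates is under -2 or over +3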
- Calls: active = hit: reporter lowered or raised; inactive = not a hit

gene	reagent	firefly Hh reporter signal, replicate 1	firefly Hh reporter signal, replicate 2	Renilla reference signal, replicate 1	Renilla reference signal, replicate 2
CG7694	1	6.68e5	86784	32778	2539
Or83c	1	76774	1.56e5	3318	4339
CG16985	1	91912	42072	2921	3286
E(Pc)	1	67210	1.30e5	2373	7712
E(Pc)	2	57577 (active)	34886	2154	3961
mdy	1	1.01e5	2.52e5	2873	10752
mdy	2	73589	73488	2793	3088
Pdp	1	88128	79031	2347	1952
brat	1	89030	79142	4256	3622
Mst84Db	1	1.05e5	1.25e5	3931	3952
Mst84Db	2	69712	81061	2922	2994
CG33170	1	1.07e5	1.66e5	3061	4288
Ect3	1	1.71e5	1.39e5	6413	3163
Cda9	1	57467	34070	1449	2314
CG15170	1	58592	40857	1616	3264
CG15258	1	81744	69892	2141	5896
l(3)80Fj	1	5.20e5	2.42e5	30887	5184
l(3)80Fj	2	62428	4.09e5	1003	13152
Gyc32E	1	5.61e5	2.02e5	29104	8779
CG14834	1	35932	52352	4203	3888
igl	1	1.37e5	1.34e5	4742	5340
Pp2C1	1	80770	59586	1732	1392
Ace	1	48071	1.94e5	10164	3656
Ace	2	95440	91575	4460	3971
CG1701	1	63227	49021	1704	3945
Sh	1	2.51e5 (active)	41056	17377	1712
Sh	2	7.86e5	3.04e5	49555	7541
Sh	3	1.15e5	2.15e5	4298	7851
Sh	4	82240	3.17e5	3056	13077
Spn43Aa	1	1.35e5	1.12e5	5164	4600
Phm	1	1.08e5	1.06e5	4832	4128
CG4983	1	84550	49504	3393	2434
kra	1	82854	49552	3387	2163
CG3165	1	82772	60304	3474	2880
dgt3	1	70978	59206	3296	2139
Dmtn	1	89024	84066	3757	3403
CG16865	1	76250	42720	2054	4145
CG42724	1	70352	32489	3281	1434
Pgant8	1	1.09e5		4100	3011
Or45a	1	1.13e5	38858	2960	4292
CG5569	1	70740	43497	1496	3996

Next part; the last 7 above are carried over.
gene	reagent	firefly Hh reporter signal, replicate 1	firefly Hh reporter signal, replicate 2	Renilla reference signal, replicate 1	Renilla reference signal, replicate 2
dgt3	1	70978	59206	3296	2139
Dmtn	1	89024	84066	3757	3403
CG16865	1	76250	42720	2054	4145
CG42724	1	70352	32489	3281	1434
Pgant8	1	1.09e5		4100	3011
Or45a	1	1.13e5	38858	2960	4292
CG5569	1	70740	43497	1496	3996
CG14445	1	81753	2.12e5	2424	6738
snRNA:U1:95Cc + snRNA:U1:95Cb	1	54326	1.75e5	12621	4400
CG12253	1	49101	41468	2275	1728
CG14212	1	81280	2.19e5	1795	9516
Fign	1	1.08e5	76279	4201	2460
Rsbp15	1	76594	1.05e5	2275	2288
Nmdar1	1	1.88e5		4755	
Nmdar1	2	49479	99778	2033	2914
TSG101	1	1.67e5		8721	4341
z	1	34380	49954	858	1709
Gr64d + Gr64e	1	1.19e5	83462	4501	6008
trbl	1	85284	80851	3216	2112
nAChRbeta2	1	1.31e5	89253	4874	3088
DIP1	1	1.38e5	2.95e5	5115	12468
CG17187	1	60992	1.30e5	2640	3893
mats	1	55522	1.95e5	10813	4194
mats	2	1.31e5	91540	5559	3722
spn-B	1	87456	97856	2621	2708
Sec24AB	1	1.05e5	82684	4482	3101
CG18258	1	63920	1.62e5	1815	9061
Psn	1	89332	1.01e5	3569	2709
CG13053	1	1.11e5		3814	3539
His4:CG33883 + His4:CG33889 + His4:CG33899 + 20 more	1	33301	69181	729	3206
HP1D3csd	1	80112	1.87e5	3178	8129
CG30083	1	1.41e5	2.80e5	4378	11433
CG12376	1	1.65e5	1.07e5	6739	4608
CG1722	1	91208	2.06e5	2793	8597
Gr8a	1	70492	1.46e5	2234	5709
MED16	1	1.14e5	80803	2660	6555
Jupiter	1	1.05e5	77555	4899	3621
Jupiter	2	88592	1.24e5	2661	6153
Jupiter	3	78932	1.22e5	2288	6016
